These are yes or no findings as the source states them, for the method shown. In cells and extracts the contact can be indirect. Some entries that bind do so weakly or less than the wild type.
Target: RelA immunoprecipitated with anti-RelA antibody from whole-cell extracts (UniProt Q04207)
Experiment: co-IP; whole-cell extracts (1% NP-40, 50 mM Tris-HCl pH 7.5, 150 mM NaCl); anti-RelA on protein A Dynabeads, overnight 4°C; immunoblot; LPS-treated cells with or without WFA or TSA pre-incubation

Chains of the proteins cited; added tags and fusions are not shown.
UniProt Q04207: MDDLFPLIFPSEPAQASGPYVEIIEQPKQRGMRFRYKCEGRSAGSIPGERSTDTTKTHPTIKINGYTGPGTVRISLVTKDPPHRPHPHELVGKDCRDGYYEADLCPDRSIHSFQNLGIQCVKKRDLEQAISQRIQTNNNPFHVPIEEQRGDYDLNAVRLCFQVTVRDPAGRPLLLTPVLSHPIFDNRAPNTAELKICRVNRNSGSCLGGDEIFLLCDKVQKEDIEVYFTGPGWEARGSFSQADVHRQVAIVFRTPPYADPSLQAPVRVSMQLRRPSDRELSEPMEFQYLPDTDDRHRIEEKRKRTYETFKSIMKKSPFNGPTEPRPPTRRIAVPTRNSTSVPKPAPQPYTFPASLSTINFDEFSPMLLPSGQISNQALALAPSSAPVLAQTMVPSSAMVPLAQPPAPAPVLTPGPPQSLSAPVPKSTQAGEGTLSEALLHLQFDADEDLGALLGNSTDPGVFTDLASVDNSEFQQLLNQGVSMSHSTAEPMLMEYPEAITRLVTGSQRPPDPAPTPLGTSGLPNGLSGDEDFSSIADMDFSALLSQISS

Q: How did the binding turn out when “p105 (NF-κB1 precursor) (from UniProt P25799-1 1-971)” was run?
A: Its binding is “binds”.

Source: article PMC6853996, “Assaying Homodimers of NF-κB in Live Single Cells” (Frontiers in Immunology, 2019)
